{"source": "patent US7629359B2", "about": "“Use of piperidine derivatives as dermo-decontracting agents” (L'Oreal, priority 2004, dated 2009)", "tested_on": "dermis equivalent model consisting of a matrix of collagen seeded with normal human fibroblasts", "assay": "Dermo-decontracting effect on dermis equivalent model (spontaneous contraction of collagen gel)", "assay_type": "cell-based", "settings": "dermis equivalent test presented in Example 1"}
{"compound": "C(=C\\c1ccccc1)/CN1CCN(C(c2ccccc2)c2ccccc2)CC1", "note": "[cinnarizine]", "values": [{"measurement": "activity as dermo-decontracting agent in the test of Example 1", "result": "not active"}]}
